PubChem BioAssay AID1224828 | NIAID – 2016
Purpose: 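Find genes required for NF-kappaB p65 moving into the nucleus after LPS in mouse macrophages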 (primary screen). Cells: mouse RAW264.7 G9 macrophage reporter cells (GFP-p65, Tnf promoter-mCherry). Reagent: siRNA pool against mouse genes, 100 nM. Duration: 2 days siRNA transfection, then 40 min LPS before fixation. Challenge: LPS (Salmonella minnesota R595) at 10 ng/ml. Measured: 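Imaged p65 nuclear translocation ratio, normalised to the plate median, converted to robust z-scores and averaged across two replicates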. Scale: p65 translocation robust z-score: higher = more nuclear NF-kappaB p65 after LPS than the plate median; nuclear/cytoplasmic p65 ratio: higher = more nuclear NF-kappaB p65. Call rule: 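Called active when z exceeds 3.3 or falls under -1.56 (median of Tlr4 controls), giving activity score of at least 50; no calls for control wells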. Calls: active = hit (p65 shift raised or lowered); inactive = no clear change.
In all, the deposit lists about 17,000 reagents; below is an unselected part. 762 of all reagents (4.5%) were called active. 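Active calls include both raised and lowered p65 entry, mostly lowered; wells with fewer than 50 cells lack a z-score.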 Raw values are not corrected between plates. Reagents against one gene are numbered here. Some reagents were tested in more than one well and are listed for each.

gene | reagent | p65 translocation robust z-score | nuclear/cytoplasmic p65 ratio, rep 1 | nuclear/cytoplasmic p65 ratio, rep 2 | low cell count flag | outcome
6820408C15Rik | 1 | 1.37 | 1.69 | 1.66 | enough cells to score | inactive
Ccdc38 | 1 | 0.27 | 1.4 | 1.45 | enough cells to score | inactive
Glyr1 | 1 | – | 1.27 | 1.21 | fewer than 50 cells per well; well left out of scoring | inactive
Nscme3l | 1 | 0.97 | 1.55 | 1.51 | enough cells to score | inactive
Nup188 | 1 | -1.68 | 1.45 | 1.2 | enough cells to score | active
Tmcc2 | 1 | – | 1.4 | 1.43 | fewer than 50 cells per well; well left out of scoring | inactive
Adam23 | 1 | -0.29 | 1.55 | 1.6 | enough cells to score | inactive
Adam23 | 2 | 0.95 | 1.53 | 1.86 | enough cells to score | inactive
Ankrd46 | 1 | -0.23 | 1.53 | 1.4 | enough cells to score | inactive
H2-Oa | 1 | 0.37 | 1.57 | 1.34 | enough cells to score | inactive
Mthfd1 | 1 | 0.87 | 1.63 | 1.39 | enough cells to score | inactive
Txlnb | 1 | – | 3.17 | 0.971 | fewer than 50 cells per well; well left out of scoring | inactive
Atp5mf | 1 | -1.57 | 1.35 | 1.31 | enough cells to score | active
Rln1 | 1 | – | 1.16 | 1.41 | fewer than 50 cells per well; well left out of scoring | inactive
Alg6 | 1 | -0.2 | 1.59 | 1.58 | enough cells to score | inactive
Mcts1 | 1 | -0.21 | 1.4 | 1.33 | enough cells to score | inactive
Ppp1r15b | 1 | 0.35 | 1.56 | 1.44 | enough cells to score | inactive
Rom1 | 1 | -2.37 | 1.18 | 1.09 | enough cells to score | active
Elk4 | 1 | 0.27 | 1.45 | 1.45 | enough cells to score | inactive
Mtr | 1 | -0.05 | 1.31 | 1.45 | enough cells to score | inactive
Csn3 | 1 | 0.38 | 1.58 | 1.9 | enough cells to score | inactive
Ucp1 | 1 | 0.69 | 1.57 | 1.64 | enough cells to score | inactive
Mis18bp1 | 1 | 0.7 | 1.62 | 1.99 | enough cells to score | inactive
Tssk6 | 1 | 0.27 | 1.68 | 1.46 | enough cells to score | inactive
Cck | 1 | -1.6 | 1.27 | 1.15 | enough cells to score | active
Nmd3 | 1 | -0.9 | 1.4 | 1.63 | enough cells to score | inactive
Or1a1 | 1 | – | 1.53 | 1.35 | fewer than 50 cells per well; well left out of scoring | inactive
Or1a1 | 1 | 0.6 | 1.64 | 1.63 | enough cells to score | inactive
Ndufa12 | 1 | -1.45 | 1.32 | 1.16 | enough cells to score | inactive
Megf11 | 1 | -0.61 | 1.37 | 1.33 | enough cells to score | inactive
Cebpz | 1 | -0.9 | 1.29 | 1.31 | enough cells to score | inactive
A430093F15Rik | 1 | -1.82 | 1.17 | 1.24 | enough cells to score | active
Tnfrsf18 | 1 | 0.31 | 1.56 | 1.57 | enough cells to score | inactive
Nfu1 | 1 | 2.01 | 1.99 | 1.79 | enough cells to score | inactive
Usp45 | 1 | -0.46 | 1.18 | 1.28 | enough cells to score | inactive
Gab3 | 1 | 1.84 | 1.71 | 1.58 | enough cells to score | inactive
Hnrnpul1 | 1 | 0.21 | 1.48 | 1.39 | enough cells to score | inactive
Ugt2b35 | 1 | -1.25 | 1.37 | 1.62 | enough cells to score | inactive
Pcgf2 | 1 | 0.58 | 1.51 | 1.68 | enough cells to score | inactive
Orai2 | 1 | – | 1.12 | 1.33 | fewer than 50 cells per well; well left out of scoring | inactive
Fcf1 | 1 | – | 1.67 | 1.8 | fewer than 50 cells per well; well left out of scoring | inactive
Ace | 1 | 0.28 | 1.68 | 1.64 | enough cells to score | inactive
Sult1d1 | 1 | – | 1.46 | 1.15 | fewer than 50 cells per well; well left out of scoring | inactive
Syt5 | 1 | – | 1.14 | 1.03 | fewer than 50 cells per well; well left out of scoring | inactive
Or9g4 | 1 | -0.64 | 1.56 | 1.48 | enough cells to score | inactive
B3gat1 | 1 | -1.59 | 1.3 | 1.59 | enough cells to score | active
Irs1 | 1 | 0.46 | 1.74 | 1.45 | enough cells to score | inactive
Abca14 | 1 | – | 1.43 | 1.28 | fewer than 50 cells per well; well left out of scoring | inactive
Slc22a26 | 1 | -0.23 | 1.63 | 1.71 | enough cells to score | inactive
Cabcoco1 | 1 | – | 1.22 | 1.34 | fewer than 50 cells per well; well left out of scoring | inactive
Fbxo31 | 1 | 0.58 | 1.63 | 1.43 | enough cells to score | inactive
Btbd7 | 1 | -0.97 | 0 | 1.39 | enough cells to score | inactive
Gldn | 1 | 1.14 | 1.7 | 2.01 | enough cells to score | inactive
Hpcal1 | 1 | -1.39 | 1.29 | 1.16 | enough cells to score | inactive
Ppp3ca | 1 | 0.2 | 1.51 | 1.45 | enough cells to score | inactive
Sh2d3c | 1 | -0.73 | 1.4 | 1.49 | enough cells to score | inactive
Raf1 | 1 | -1.61 | 1.43 | 1.24 | enough cells to score | active
Npbwr1 | 1 | 0.05 | 1.47 | 1.64 | enough cells to score | inactive
Dppa5a | 1 | 1.66 | 1.69 | 1.58 | enough cells to score | inactive
Klra5 | 1 | -0.21 | 1.42 | 1.38 | enough cells to score | inactive
Neurl4 | 1 | 0.16 | 1.61 | 1.66 | enough cells to score | inactive
Txndc9 | 1 | – | 1.31 | 1.2 | fewer than 50 cells per well; well left out of scoring | inactive
Bbox1 | 1 | 1.05 | 1.75 | 2.01 | enough cells to score | inactive
Fcrl1 | 1 | -0.98 | 1.45 | 1.48 | enough cells to score | inactive
Atf6 | 1 | 0.82 | 1.74 | 1.73 | enough cells to score | inactive
Emc10 | 1 | 1.32 | 1.53 | 1.39 | enough cells to score | inactive
Slc37a3 | 1 | – | 1.98 | 1.16 | fewer than 50 cells per well; well left out of scoring | inactive
Cldn15 | 1 | -0.06 | 1.51 | 1.85 | enough cells to score | inactive
Zfp622 | 1 | -0.81 | 1.26 | 1.2 | enough cells to score | inactive
Cdrt4 | 1 | – | 1.65 | 1.93 | fewer than 50 cells per well; well left out of scoring | inactive
Nubp2 | 1 | -0.99 | 1.33 | 1.27 | enough cells to score | inactive
Vmn2r129 | 1 | – | 1.43 | 1.23 | fewer than 50 cells per well; well left out of scoring | inactive
Vmn2r129 | 2 | -0.02 | 1.43 | 1.19 | enough cells to score | inactive
Plac1 | 1 | – | 1.2 | 1.13 | fewer than 50 cells per well; well left out of scoring | inactive
Fgfrl1 | 1 | -0.03 | 1.37 | 1.43 | enough cells to score | inactive

11 of these entries, set out differently.
gene	reagent	p65 translocation robust z-score	nuclear/cytoplasmic p65 ratio, rep 1	nuclear/cytoplasmic p65 ratio, rep 2	low cell count flag	outcome
Ucp1	1	0.69	1.57	1.64	enough cells to score	inactive
Mis18bp1	1	0.7	1.62	1.99	enough cells to score	inactive
Tssk6	1	0.27	1.68	1.46	enough cells to score	inactive
Cck	1	-1.6	1.27	1.15	enough cells to score	active
Nmd3	1	-0.9	1.4	1.63	enough cells to score	inactive
Or1a1	1		1.53	1.35	fewer than 50 cells per well; well left out of scoring	inactive
Or1a1	1	0.6	1.64	1.63	enough cells to score	inactive
Ndufa12	1	-1.45	1.32	1.16	enough cells to score	inactive
Megf11	1	-0.61	1.37	1.33	enough cells to score	inactive
Cebpz	1	-0.9	1.29	1.31	enough cells to score	inactive
A430093F15Rik	1	-1.82	1.17	1.24	enough cells to score	active
